We go through five molecules from publication doi:10.1101/2022.04.11.487922.

Results are given in words; binding and its absence hold for the method and conditions named. Some binding calls cover weakened binding; strength is not graded here.

What all share (experiment): SEC
(Size exclusion chromatography separates by hydrodynamic size, large species first.)

Experiment [1] deals with N-terminal hexahistidine murine p50(39-350) (murine) (UniProt P25799).
The target of experiment [2] is T1, p50_(39-350)/RelA_(19-549) heterodimer (murine), P25799.
T1 chain 1: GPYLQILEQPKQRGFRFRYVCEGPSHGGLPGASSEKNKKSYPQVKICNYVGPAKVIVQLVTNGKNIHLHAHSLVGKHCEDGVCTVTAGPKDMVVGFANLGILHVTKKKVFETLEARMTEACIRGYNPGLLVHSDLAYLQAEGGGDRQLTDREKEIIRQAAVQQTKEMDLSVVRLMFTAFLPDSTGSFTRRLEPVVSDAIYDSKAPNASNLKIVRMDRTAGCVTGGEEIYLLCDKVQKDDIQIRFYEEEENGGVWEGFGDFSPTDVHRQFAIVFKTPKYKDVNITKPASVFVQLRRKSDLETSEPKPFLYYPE
T1 chain 2: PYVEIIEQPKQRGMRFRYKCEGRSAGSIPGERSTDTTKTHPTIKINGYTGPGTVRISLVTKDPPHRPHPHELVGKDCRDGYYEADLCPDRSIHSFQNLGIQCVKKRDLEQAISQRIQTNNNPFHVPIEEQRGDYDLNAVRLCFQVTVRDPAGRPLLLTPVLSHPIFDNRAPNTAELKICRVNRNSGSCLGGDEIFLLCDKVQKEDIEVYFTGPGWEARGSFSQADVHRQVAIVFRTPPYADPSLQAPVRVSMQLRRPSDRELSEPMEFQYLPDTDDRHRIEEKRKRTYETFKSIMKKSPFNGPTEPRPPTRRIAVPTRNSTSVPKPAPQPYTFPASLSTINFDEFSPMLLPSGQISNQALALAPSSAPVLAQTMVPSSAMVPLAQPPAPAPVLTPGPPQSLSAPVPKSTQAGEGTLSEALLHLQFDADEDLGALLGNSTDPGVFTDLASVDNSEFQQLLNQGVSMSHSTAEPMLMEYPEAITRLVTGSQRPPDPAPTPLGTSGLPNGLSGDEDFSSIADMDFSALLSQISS
The following applies: remark: other sources report otherwise.

In experiment [3] the target is T2, p50_(39-350)/RelA_(19-321) heterodimer (murine), P25799.
T2 chain 1: T1 chain 1
T2 chain 2: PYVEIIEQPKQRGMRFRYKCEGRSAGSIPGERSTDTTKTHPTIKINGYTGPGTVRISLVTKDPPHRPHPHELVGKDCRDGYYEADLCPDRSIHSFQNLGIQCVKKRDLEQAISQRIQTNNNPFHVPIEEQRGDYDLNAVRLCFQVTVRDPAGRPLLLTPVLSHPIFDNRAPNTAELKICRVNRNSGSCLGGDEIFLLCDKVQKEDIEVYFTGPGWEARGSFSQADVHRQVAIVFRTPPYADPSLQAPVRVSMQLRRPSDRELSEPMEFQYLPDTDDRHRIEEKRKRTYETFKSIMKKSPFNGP
The following applies: remark: other sources report otherwise.

Experiment [4] addresses RelATAD (RelA residues 340-549) (murine) (UniProt Q04207).

Turning to “murine RelA residues 19-321 (from UniProt Q04207 19-321) (domain or fragment)”, the binding entry in experiment [1] is on record as “binds”.

“murine RelA residues 19-549 (from UniProt Q04207 19-549)”: in experiment [1], the binding result was “binds”.

B1: p50_(39-350)/RelA_(19-549) heterodimer, P25799 39-350; Q04207 19-549 (complex)
chain 1: T1 chain 1
chain 2: T1 chain 2
As to B1, the binding entry in experiment [2] is “no binding (tested: 10 µM)”.

B2: p50_(39-350)/RelA_(19-321) heterodimer, P25799 39-350; Q04207 19-321 (complex)
chain 1: T1 chain 1
chain 2: T2 chain 2
Consider B2, for which, in experiment [3], the binding result was “no binding (tested: 10 µM)”.

B3: RelATAD (RelA residues 340-549) (domain or fragment, UniProt Q04207 340-549)
chain: SVPKPAPQPYTFPASLSTINFDEFSPMLLPSGQISNQALALAPSSAPVLAQTMVPSSAMVPLAQPPAPAPVLTPGPPQSLSAPVPKSTQAGEGTLSEALLHLQFDADEDLGALLGNSTDPGVFTDLASVDNSEFQQLLNQGVSMSHSTAEPMLMEYPEAITRLVTGSQRPPDPAPTPLGTSGLPNGLSGDEDFSSIADMDFSALLSQISS
With B3, in experiment [4], the binding entry is given as “no binding (tested: 20 µM)”.
